## Library screen at single concentrations

By UniProt entry, the sequences of proteins in these tests, tags left out.
UniProt P9WPC5, whole entry: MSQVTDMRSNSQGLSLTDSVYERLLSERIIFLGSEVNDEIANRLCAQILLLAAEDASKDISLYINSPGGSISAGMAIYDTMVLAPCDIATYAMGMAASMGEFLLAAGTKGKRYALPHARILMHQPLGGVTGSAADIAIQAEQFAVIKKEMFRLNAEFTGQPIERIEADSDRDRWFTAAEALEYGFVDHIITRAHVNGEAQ
UniProt P9WPC3, whole entry partner: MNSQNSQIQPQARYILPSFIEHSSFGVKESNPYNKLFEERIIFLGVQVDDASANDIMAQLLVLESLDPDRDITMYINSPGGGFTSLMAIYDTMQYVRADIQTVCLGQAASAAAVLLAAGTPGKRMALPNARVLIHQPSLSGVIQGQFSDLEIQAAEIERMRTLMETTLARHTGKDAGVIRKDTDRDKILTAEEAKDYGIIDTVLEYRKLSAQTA
UniProt P9WNZ1, whole entry: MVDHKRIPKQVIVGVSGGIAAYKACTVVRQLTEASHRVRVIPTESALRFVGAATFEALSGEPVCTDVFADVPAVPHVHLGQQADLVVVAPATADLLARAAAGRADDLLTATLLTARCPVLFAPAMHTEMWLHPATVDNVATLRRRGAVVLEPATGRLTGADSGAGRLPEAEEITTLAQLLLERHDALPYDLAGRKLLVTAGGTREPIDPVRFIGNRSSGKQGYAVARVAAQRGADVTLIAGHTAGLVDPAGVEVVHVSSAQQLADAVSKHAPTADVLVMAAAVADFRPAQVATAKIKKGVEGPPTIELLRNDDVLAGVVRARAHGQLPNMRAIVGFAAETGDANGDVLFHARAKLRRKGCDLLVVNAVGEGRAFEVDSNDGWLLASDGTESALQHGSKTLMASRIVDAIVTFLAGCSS

The values are deposited in ChEMBL (CHEMBL3988442, “University of Dundee, Small-Polar-MMV Screening Library” (2021)).

Results are given as percent effect. How 0% and 100% were set is not recorded. Most values in the screen are low, and negative values occur. Compounds were drawn at random from those tested, without regard to their results. A dash means the value is not listed here; it may have been measured.

ClpP1P2: 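Protease assay of ClpP1P2, read by the AMC dye that it sets free. Target: ClpP1P2, Mycobacterium tuberculosis (UniProt P9WPC5 and UniProt P9WPC3). Compounds at 50 µM. Direction is inferred from only a few compounds that gave an IC50; most scored high, so higher reads as stronger inhibition. Most other retested compounds had strongly negative values. Size under these conditions: about 69,000 compounds, about 10 of them at 50% or above in at least one test.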
CoaBC: 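Enzyme assay of CoaBC with a phosphate dye (Biomol Green) read at 650 nm. Target: Coenzyme A biosynthesis protein CoaBC, Mycobacterium tuberculosis (UniProt P9WNZ1). Compounds at 30 µM. Direction is inferred from only a few compounds that gave an IC50; most scored high, so higher reads as stronger inhibition. Most strong results did not repeat in a second test. Of about 67,000 compounds tested this way, about 40 (0.06%) reached 50% or more in at least one test.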
Toxoplasma: 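Assay of Toxoplasma gondii numbers, read through their beta-galactosidase reporter with a colour substrate. Compounds at 10 µM. Higher reads as fewer parasites (inferred from which compounds were picked for retests). Of about 67,000 compounds tested this way, about 260 (0.38%) reached 50% or more in at least one test.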

structure	ClpP1P2	CoaBC	Toxoplasma
COC(=O)c1ccc(CNC(=O)Cc2csc(C(C)=O)c2)cc1	8.945	4.762	-1.274
Cn1cc(C(=O)N2CCCC(c3ccncc3)C2)cn1 (stereo not drawn)	9.275	3.676	-0.9486
c1ccc2c(c1)CC(Cc1cc(N3CCCC3)cnn1)CCO2 (stereo not drawn)	-6.626	-1.229	-5.758
FC(F)(F)CCN(Cc1ccon1)C1CCC1	-3.884	3.968	1.661
CN(C)C(CNS(=O)(=O)c1cc(F)ccc1F)c1cccn1C (stereo not drawn)	-1.045	-0.1248	8.281
CCn1c(C)nnc1CN(C)C1CCN(CCCSC)C1 (stereo not drawn)	-19.15	1.567	21.37
COCCC(=O)Nc1cc(CC(C)(C)C)n[nH]1	-1.845	1.167	-1.477
CCCc1noc(-c2cn(CC(=O)N(CC)CC)nn2)n1	3.823	0.1196	18.94
O=C(c1ccnnc1)N1CCCn2nnc(COCC3CC3)c2C1	14.06	-5	-5.434
COCC(C)NC(=O)CCSc1ccc(F)cc1 (stereo not drawn)	-9.299	-7.455	4.071
CCn1cnnc1CNC(=O)c1cc(Cl)ccc1I	1.683	11.07	-45.56
CCC(CCO)NS(=O)(=O)c1ccc(Br)cn1 (stereo not drawn)	6.64	1.21	3.241
Cc1cc(CC2COCCN(CCc3ccccc3)C2)ncn1 (stereo not drawn)	-5.646	18.88	-12.14
O=C(N1CCCC(n2cncn2)C1)C1(c2cccc(F)c2)CCC1 (stereo not drawn)	-33.77	-2.682	2.593
Cc1nc(-c2ccccc2)n(CC(=O)NC2CCCCC2)n1	-3.805	0.3871	8.621
CC1CCN(CCNC(=O)c2sccc2C2CC2)CC1	-7.235	0.5964	-17.57
Cc1cc(CN2CCN(C(=O)NCc3ccc(C)s3)CC2)on1	-29.62	-8.864	6.166
Cc1cnccc1N1CCN(C[C@]2(O)CCCN3CCCC[C@@H]32)CC1	-4.908	-8.423	-
CCn1ncc2c1NC(=O)C(C#N)C21CCCC1 (stereo not drawn)	7.483	-10.89	8.764
CNc1cc(CNC(=O)c2ccncc2)nc(-c2ccncc2)n1	-0.5369	2.913	-12.61
Cc1ccc(NS(=O)(=O)c2cnn(Cc3ccccc3)c2)c(C(=O)O)c1	-1.086	0.7264	-3.51
COc1ncc(CN2CCCC(c3[nH]ncc3S(C)(=O)=O)C2)cn1 (stereo not drawn)	-0.3349	0	-10.37
O=C(Nc1ccccc1)N1C(CN2CCOCC2)[C@]2(O)CC[C@H]1CC2 (stereo partly drawn)	-7.441	0.4843	-
Cc1csc(CNc2cnc3c(c2)c(C)nn3C)n1	-864.8	-31.77	5.036
O=C1CCSCC(C(=O)NCc2nc(-c3ccccc3)no2)N1 (stereo not drawn)	-5.586	6.234	-7.609
[H][C@@]12CN(C(=O)c3ccsc3)C[C@]1([H])C(=O)N(Cc1ccc(OC)cc1)C2	-	-	5.859
[H][C@]12CC[C@@H](Nc3cccnn3)[C@@]1([H])CN(Cc1ccc3cc[nH]c3c1)C2	-	-	-3.891
CC(C)N1[C@H](Cn2cccn2)C[C@@H]2CN(Cc3ccoc3)CC[C@@H]21	-4.065	-	-
COCC(=O)N1CCC(c2cc(C(F)(F)F)n3ccnc3n2)CC1	-57.94	0.3927	-4.292
CCN1CCN(C(=O)C2CCOC2)c2ccccc21 (stereo not drawn)	6.485	-2.265	33.62
CCOC(=O)CC1CCCCN1C(=O)c1cc(C)on1 (stereo not drawn)	1.846	-0.8264	1.006
COc1c(CNCCNC(=O)c2ccccc2)c(C)nn1C	-10.78	-1.02	-
Cc1ccc(CN2CCCC(c3nn(C)c4nccnc34)C2)s1 (stereo not drawn)	-0.3661	3.186	-16.71
CN(C)c1ncc(-c2cncn2CCc2ccc3c(c2)OCCO3)cn1	-29.97	-6.068	-
CCC1CN(C)c2ccccc2CN1C(=O)CCn1cncn1 (stereo not drawn)	-7.076	-5.785	1.744
Cc1cccc(C2(C(=O)NCCCn3cccn3)CC2)c1	-3.307	5.33	0.8758
[H][C@@]12CS(=O)(=O)C[C@]1([H])N(C(=O)NCCc1ccc(OC)cc1)CCN2C	-	-	1.511
O=C(O)C1CCN(C(=O)Cn2ccc3c(Cl)cccc32)CC1	-9.47	-0.5109	-15.82
Cc1occc1C(=O)N1CCC2(CCCN(Cc3cccs3)C2)C1 (stereo not drawn)	-1.746	0.8157	-
CC(C)c1noc(-c2ccc(N(C)C3CCOCC3)nc2)n1	-4.386	-12.4	-1.274
CCc1cnc(CN2CCOC(c3nc(C)n[nH]3)C2)o1 (stereo not drawn)	-12.42	0.7353	-1.641
COc1cc(C(=O)Nc2nc(C)no2)ccc1OC(F)F	-13.65	0	-14.43
NS(=O)(=O)N1CCc2ccc(NC(=O)CCc3ccncc3)cc21	-0.9445	-2.244	-2.276
CC(=O)NCc1ccc(C(=O)N2CCCC2c2cnn(C)c2)s1 (stereo not drawn)	-3.9	0.4779	-5.271
Cc1noc(C2CCCN(Cn3cc(Br)cn3)C2)n1 (stereo not drawn)	-8.305	5.157	-7.459
c1ccc(CCN2CCN(c3ccc4nncn4n3)CC2)nc1	-2.923	1.928	-3.6
CCn1ccc(NS(=O)(=O)c2cccc(CSC)c2)n1	-1.318	3.559	17.26
COc1ccc2c(c1)CCCN2C(=O)NC1CCCCNC1=O (stereo not drawn)	0.3414	10.2	-13.63
COCCC(=O)N1CCCC(CCc2ccc(F)c(F)c2)C1 (stereo not drawn)	-13.6	3.899	-18.99
Oc1cccc(CN2CCN(c3nccc(CCC(F)(F)F)n3)CC2)c1	1.906	-4.839	-1.857
[H][C@]12CC[C@]([H])(CN(Cc3c(C)noc3C)C1)N(Cc1cccc(C=C)c1)C2	-	-	-0.2309
CS(=O)(=O)c1cc(NC(=O)COc2ccccc2F)cc(C(=O)O)c1	-11.21	-1.456	2.277
CCc1ncnc2c1CCN(Cc1ccc(OC)cc1)CC2.O=C(O)C(F)(F)F	-	-	-16.09

The first 6 entries again:

{"structure": "COC(=O)c1ccc(CNC(=O)Cc2csc(C(C)=O)c2)cc1", "ClpP1P2": 8.945, "CoaBC": 4.762, "Toxoplasma": -1.274}
{"structure": "Cn1cc(C(=O)N2CCCC(c3ccncc3)C2)cn1", "stereo": "stereo not drawn", "ClpP1P2": 9.275, "CoaBC": 3.676, "Toxoplasma": -0.9486}
{"structure": "c1ccc2c(c1)CC(Cc1cc(N3CCCC3)cnn1)CCO2", "stereo": "stereo not drawn", "ClpP1P2": -6.626, "CoaBC": -1.229, "Toxoplasma": -5.758}
{"structure": "FC(F)(F)CCN(Cc1ccon1)C1CCC1", "ClpP1P2": -3.884, "CoaBC": 3.968, "Toxoplasma": 1.661}
{"structure": "CN(C)C(CNS(=O)(=O)c1cc(F)ccc1F)c1cccn1C", "stereo": "stereo not drawn", "ClpP1P2": -1.045, "CoaBC": -0.1248, "Toxoplasma": 8.281}
{"structure": "CCn1c(C)nnc1CN(C)C1CCN(CCCSC)C1", "stereo": "stereo not drawn", "ClpP1P2": -19.15, "CoaBC": 1.567, "Toxoplasma": 21.37}